{"source": "PubChem BioAssay AID1224830 (NIAID, 2016)", "assay": "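Genes whose knock-down alters the TNF-alpha reporter response to LPS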 (primary screen)", "cell system": "human THP-1 monocytic leukaemia cells, TNF dual-luciferase reporter clone, PMA-differentiated to macrophage-like cells", "reagent": "siRNA pool against human genes, 50 nM", "duration": "LPS for 4 h, given about 3 days after siRNA transfection", "treatment": "bacterial LPS (TLR4 ligand), 10 ng/ml", "read-out": "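TNF firefly reporter luminescence divided by renilla, normalised to the plate median, then turned into a robust z-score for each replicate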", "scale": "TNF reporter robust z-score: higher = stronger TNF reporter response to LPS", "active means": "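Each well counts as active if its z-score is over 2.8 or under -1.5; controls are left without a call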", "note": "In all, the deposit lists about 18,000 reagents; below is a part drawn at random. About 2,900 of them (16%) were called active. 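Calls are made per well; low scores hint the gene aids the LPS response, high scores that it dampens it.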 Repeated entries: four replicate wells of each siRNA pool."}
{"Gene":"CGRRF1","TNF reporter robust z-score":-0.9,"Outcome":"inactive"}
{"Gene":"CGRRF1","TNF reporter robust z-score":1.13,"Outcome":"inactive"}
{"Gene":"CGRRF1","TNF reporter robust z-score":-0.23,"Outcome":"inactive"}
{"Gene":"CGRRF1","TNF reporter robust z-score":1.68,"Outcome":"inactive"}
{"Gene":"TXNDC17","TNF reporter robust z-score":0.59,"Outcome":"inactive"}
{"Gene":"TXNDC17","TNF reporter robust z-score":1.59,"Outcome":"inactive"}
{"Gene":"TXNDC17","TNF reporter robust z-score":0.97,"Outcome":"inactive"}
{"Gene":"TXNDC17","TNF reporter robust z-score":1.03,"Outcome":"inactive"}
{"Gene":"DKK1","TNF reporter robust z-score":1.12,"Outcome":"inactive"}
{"Gene":"DKK1","TNF reporter robust z-score":2.3,"Outcome":"inactive"}
{"Gene":"DKK1","TNF reporter robust z-score":-0.5,"Outcome":"inactive"}
{"Gene":"DKK1","TNF reporter robust z-score":-0.87,"Outcome":"inactive"}
{"Gene":"ZNF630","TNF reporter robust z-score":1.01,"Outcome":"inactive"}
{"Gene":"ZNF630","TNF reporter robust z-score":-0.53,"Outcome":"inactive"}
{"Gene":"ZNF630","TNF reporter robust z-score":1.22,"Outcome":"inactive"}
{"Gene":"ZNF630","TNF reporter robust z-score":1.73,"Outcome":"inactive"}
{"Gene":"OR4A5","TNF reporter robust z-score":0.95,"Outcome":"inactive"}
{"Gene":"OR4A5","TNF reporter robust z-score":1.26,"Outcome":"inactive"}
{"Gene":"OR4A5","TNF reporter robust z-score":0.97,"Outcome":"inactive"}
{"Gene":"OR4A5","TNF reporter robust z-score":1.39,"Outcome":"inactive"}

Entries above whose target name begins with Z or z (4):
{"Gene":"ZNF630","TNF reporter robust z-score":1.01,"Outcome":"inactive"}
{"Gene":"ZNF630","TNF reporter robust z-score":-0.53,"Outcome":"inactive"}
{"Gene":"ZNF630","TNF reporter robust z-score":1.22,"Outcome":"inactive"}
{"Gene":"ZNF630","TNF reporter robust z-score":1.73,"Outcome":"inactive"}
